No constants are given. Whether binding was seen depends on the method and setting. A result given as binding can be weak or reduced; the word gives no strength.

B1: CLL-1 antibody clone M5 (antibody, IgG2a, V domains shown)
VH: EVQLQQSGAELVRPGASVKLSCTASGFNIKDDYIHWVKQRPEQGLEWIGWIDPEKGDTAYASKFQDKATITSDTSSNTAYLQLSSLTSEDTAVYYCTLTGRFDYWGQGTTLTVSS
VL: DIVMSQSPSSLAVSVGEKVTMSCKSSQSLLYSSNQKNNLAWYQQKPGQSPKLLIYWASTRESGVPDRFTGSGSGTDFTLTISSVQAEDLAVYYCQQYYSYRTFGGGTKLEIK
B2: CLL-1 antibody clone G4 (antibody, IgG1, V domains shown)
VH: EVQLQQSGPELVKPGASMKISCKASGYSFTGYTMNWVKQSHEKNLEWIGPINPYNDGTIYNPNFKGKATLTVDKASSTAYMELLSLTSDDPAVYYCARTDDYDDYTMDYWGQGTSVTVSS
VL: EIQMTQTPSSLSASLGDRVTISCRASHDISNYLNWYQQKPDGTLKLLIYYTSRLHSGVPSRFSGSGSGTDYSLTISNLEQEDIATYFCQQGKTLLWTFGGGTKLEIK
notes: also called 31.G4; 31G4
B3: CLL-1 antibody clone M22 (antibody, IgG2a, V domains shown)
VH: QVQLQQPGAELVKPGASVKLSCKASGYTFTRYWMHWVKQRPGQGLEWIGNIDPSDTETHYNQQFKDKATLTVDKSSSTAYMQLSSLTSEDSAVYYCAIYYGNPSYYAMDYWGQGTSVTVSS
VL: DIVMTQSPSSLTVTAGEKVTMSCKSSQNLLNSGNQKKYLNWYQQKPGQPPKLLIYWASTRESGVPDRFTGSGSGTDFTLTISSVQAEDLAVYFCQNDYSYPFTFGAGTKLELK
B4: CLL-1 antibody clone M29 (antibody, IgG1, V domains shown)
VH: EVQLQQSGPELVKPGASVKMSCKASGYIFTSYVMYWVKQKPGQGLEWIGYINPYNDGTKYNEKFKGKATLTSDKSSSTAYMELSSLTSEDSAVYYCARYYDYDYYFDYWGQGTTLTVSS
VL: DIQMTQSPSSLSASLGGKVTITCKASQDINKYIAWYQHKPGKGPRLLIHYTSTLQPGIPSRFSGSGSGRDYSFSISNLEPEDIATYYCLQYDYLWTFGGGTKLEIK
B5: CLL-1 antibody clone M26 (antibody, V domains shown)
VH: EVQLQQSGPELVKPGASVKMSCKASGYTFTSYFIHWVKQKPGQGLEWIGFINPYNDGSKYNEKFKGKATLTSDKSSSTAYMELSSLTSEDSAVYYCTRDDGYYGYAMDYWGQGTSVTVSS
VL: DIQMTQSPSSLSASLGERVSLTCRATQELSGYLSWLQQKPDGTIKRLIYAASTLDSGVPKRFSGNRSGSDYSLTISSLESEDFADYYCLQYAIYPYTFGGGTKLEIKR
notes: Conjugated to saporin in the ADC assays
B6: CLL-1 antibody clone M2 (antibody, IgG1, V domains shown)
VH: EVQLRQSGPELVKPGASVKMSCKASGYTFTSYFMHWVKQKPGQGLEWIGFINPYNDGTKYNEKFKGKATLTSDKSSSTAYMELNSLTSEDSAVYYCTRDDGYYDYAMDYWGQGTSVTVSS
VL: DIQMTQSPSSLSASLGERVSLTCRASQEISVYLSWLQQKPDGTIKRLIYAASTLDSGVPERFSGSRSGSDYSLTISSLESEDFADYYCLQYASYPYTFGGGTKLEIKR
B7: CLL-1 antibody clone M31 (antibody, IgG2a, V domains shown)
VH: EVQLQQSGPELVKPGASVKMSCKASGYTFTSYVMHWVKQKPGQGLEWIGYINPYNDGTKYNEKFKGKATLTSDTSSSTAYMELNSLTSEDSAVYFCARPIYFDNDYFDYWGQGTTLKVSS
VL: TIVLTQSPASLAVSLGQRATISCRASESVDSYGNSFMHWYQQKPGQPPKLLIYLASNLESGVPARFSGSGSRTDFTLTIDPVEADDAATYYCQQNNYDPWTFGGGTKLEIK

The target of the experiment is Cynomolgus monkey CLL-1 (cynomolgus monkey). Put plainly: ELISA, relative binding. A general note: ELISA stands for enzyme-linked immunosorbent assay.
B1: the binding result was “binds”.

For B2, the binding result is “binds”. With B3, the binding result was “no binding”. Consider B4, for which the binding result is listed as “binds”.

On to B5, for which the binding result is “binds”. For B6, the binding result is recorded as “binds”. As for B7, the entry is “binds”.

The record behind these values is patent US20130295118A1 (CELLERANT THERAPEUTICS, published 2013).
